Test results taken from patent publication US8835392B2, “Mimetic peptides and the use thereof in the form of 20S, 26S and immunoproteasome inhibitors” (Technische Universität, priority 2005, dated 2014).
Some results were stated once for a whole list of compounds, not compound by compound. Where a SMILES comes first, the peptide text is derived from it. The star is where a group is joined. Cbz = O=C(OCc1ccccc1)*; OtBu = CC(C)(C)O*; CH2Cl = ClC*

Sequences of proteins named here, by UniProt entry; tags and fusion partners are left off. A change or cut given only in a name is not applied to a line headed by its entry.
UniProt P20618: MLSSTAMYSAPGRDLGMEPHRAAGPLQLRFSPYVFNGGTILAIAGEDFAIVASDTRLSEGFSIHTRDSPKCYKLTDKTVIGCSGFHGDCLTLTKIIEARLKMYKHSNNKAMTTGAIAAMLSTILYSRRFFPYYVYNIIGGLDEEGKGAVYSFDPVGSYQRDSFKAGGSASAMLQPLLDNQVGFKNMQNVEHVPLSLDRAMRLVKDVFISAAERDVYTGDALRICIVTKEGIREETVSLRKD
UniProt P28074: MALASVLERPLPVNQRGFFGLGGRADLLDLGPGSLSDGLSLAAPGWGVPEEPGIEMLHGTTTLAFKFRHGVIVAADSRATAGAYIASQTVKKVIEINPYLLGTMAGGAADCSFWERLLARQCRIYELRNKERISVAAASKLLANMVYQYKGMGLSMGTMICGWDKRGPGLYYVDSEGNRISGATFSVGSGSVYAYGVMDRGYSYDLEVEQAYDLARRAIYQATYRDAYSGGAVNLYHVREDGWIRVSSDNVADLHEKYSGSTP

What was measured:
20S proteasome = target: T1, 20S proteasome; experiment: Inhibition of the different proteasomal activities, summary statements; assay type: biochemical; details: proteasomal activity not given; read-out: IC50-values of the most potent inhibitors
T1 construct: Proteasomes were isolated from red blood cells; from tissue; host or cells: red blood cells
Protocol: The specific inhibition of a single catalytic site is of specific interest for the development of drugs. Thus, the inhibition of the different proteasomal activities of the proteasome was analysed (see also example 6). The different cleavage-preferences of the proteasome were determined by the specific substrate for the hydrophobic (chymotrypsin-like), the trypsine-like and the caspase-like activities of isolated proteasomes.
Suc-LLVY-AMC, Z-VGR-AMC and LLE-AMC (BACHEM, Calbiochem) was used, in order to determine the chymotrypsin-like, trypsin-like or caspase-like (post-acidic)-activities of the proteasome. Substrate was incubated with proteasome at 37° C. in assay-buffer (20 mM Tris/Cl, pH 7.2, 1 mM EDTA, 1 mM DTT) for one hour. 100 ng proteasome was pre-incubated with 0.01-10 μM of the inhibitor for […]. The reaction was started by the addition of substrate (50 μM). The AMC as released was detected using fluorescence emission at 460 nm (excitation at 390 nm) using a TECAN-fluorimeter. The activity was calculated in fluorescence-units. The inhibition is depicted by IC50-values.
The effects thereof were compared with the one of the commonly used proteasomal inhibitor 3 (MG132). The chymotrypsin-like (Suc-LLVY-AMC), the trypsin-like (Bz-VGR-AMC), and the caspase-like (Z-LLE-AMC)-activities of 20S proteasomes were determined following incubation for one hour at 37° C.

[1] = target: T2, proteasomal activity in HeLa-cells (Homo sapiens, UniProt P20618+P28074); experiment: Intracellular inhibition of proteasomes in cultivated HeLa-cells; assay type: cell-based; details: for specific proteasomal activity reduced to a value of: HeLa cells treated with 1 μM, remaining activity; for reduction of the intracellular proteasomal activity: after 20 hours of incubation
T2 construct: endogenous in cells; host or cells: HeLa
Protocol: A, HeLa-cells were cultivated were 24 hours in the presence of the inhibitor. The protein concentration was determined in accordance with the cellular lysis according to Bradford in order to normalise the proteasomal activities to the different amounts of cells. Subsequently Complete (Roche) was added to all lysates, and the proteasomal activity was determined through the hydrolysis of Suc-LLVY-AMC. B, HeLa-cells was incubated with 1 μM of compound 15 for 2, 4, 6 and 24 hours. Cells were lysed, and proteins were separated through SDS-PAGE on a 10% gel, blotted to a PVDF-membrane. The accumulation of the poly-ubiquitinylated proteins was detected in a Western blot by an anti-ubiquitine-antibody (DAKO). C, HeLa-Cells were treated with increasing concentrations of the inhibitor 15, 25, 26, 27, and 28 for 24 hours (lane 1: without inhibitor; lane 2: 10 nM; lane 3: 100 nM and lane 4: 1 μM of the given inhibitor). Cells were lysed, proteins were separated on 15% gels, and the accumulation of the poly-ubiquitinylated proteins was controlled through Western blot.
HeLa-Cells were cultivated in RPMI, supplemented with 10% FCS and penicillin/streptomycin, at 5% CO2. Inhibitors were administered from 100×-stock solutions (in DMSO) at the final concentrations as indicated, and incubated with the cells for at least 20 hours.
Cultivated cells (HeLa) were harvested lysed and with 0.1% NP40 in TEAD in the presence of the commercially available protease-inhibitor-mixture Complete (Roche). The proteasomal activity was measured in 10 μl of the lysate using Suc-LLVY-AMC as a substrate. The protein content was quantified by means of Bradford (Protein assay; BioRad).
An application on cell cultures or animals requires that the concentrations of the inhibitors are chose as low as required. The specific proteasomal activity was reduced to a value of below 50% in cells that were treated with 1 μM of the compounds 15, 22, 25, 26, or 28, respectively (FIG. 6A).

SMILES	IC50 (20S proteasome) [nM]	specific proteasomal activity reduced to a value of [1]	reduction of the intracellular proteasomal activity [1] [%]
CC(C)C[C@H](NC(=O)OCc1ccccc1)C(=O)N[C@@H](CC(C)C)C(=O)N[C@@H](CC(C)C)C(=O)C(=O)NCc1ccccc1 [Compound 26]		below 50%	> 50
CC(C)C[C@H](NC(=O)OCc1ccccc1)C(=O)N[C@@H](CC(C)C)C(=O)N[C@@H](CC(C)C)C(=O)C(=O)Nc1ccccc1 [Compound 28]	< 100	below 50%	> 50

Now from value to compound:

IC50 (20S proteasome) [nM]	specific proteasomal activity reduced to a value of [1]	reduction of the intracellular proteasomal activity [1] [%]	SMILES
< 100	below 50%	> 50	CC(C)CC(C=O)NC(=O)C(CC(=O)OC(C)(C)C)NC(=O)C(CC(C)C)NC(=O)OCc1ccccc1 (stereo not drawn) [Compound 15, Z-Leu-Asp(O^tBu)Leu-CHO] (Cbz-Leu-Asp(OtBu)-Leu-aldehyde; configuration not given here)
	below 50%	> 50	CC(C)CC(NC(=O)C(CC(C)C)NC(=O)C(CC(C)C)NC(=O)OCc1ccccc1)C(=O)CCl (stereo not drawn) [Compound 22] (Cbz-Leu-Leu-Leu-CH2Cl; configuration not given here)
	below 50%	> 50	CC(C)C[C@H](NC(=O)OCc1ccccc1)C(=O)N[C@@H](CC(C)C)C(=O)N[C@@H](CC(C)C)C(O)C(=O)Nc1ccccc1 (stereo partly drawn) [Compound 25]
